Drawing on publication doi:10.1101/2021.07.09.451832, this text covers binding for six molecules.

By UniProt entry, the sequences of proteins in these tests, tags left out. Where a name states a change or a piece, a line headed by the entry shows the natural chain unless it says otherwise.
UniProt P31749: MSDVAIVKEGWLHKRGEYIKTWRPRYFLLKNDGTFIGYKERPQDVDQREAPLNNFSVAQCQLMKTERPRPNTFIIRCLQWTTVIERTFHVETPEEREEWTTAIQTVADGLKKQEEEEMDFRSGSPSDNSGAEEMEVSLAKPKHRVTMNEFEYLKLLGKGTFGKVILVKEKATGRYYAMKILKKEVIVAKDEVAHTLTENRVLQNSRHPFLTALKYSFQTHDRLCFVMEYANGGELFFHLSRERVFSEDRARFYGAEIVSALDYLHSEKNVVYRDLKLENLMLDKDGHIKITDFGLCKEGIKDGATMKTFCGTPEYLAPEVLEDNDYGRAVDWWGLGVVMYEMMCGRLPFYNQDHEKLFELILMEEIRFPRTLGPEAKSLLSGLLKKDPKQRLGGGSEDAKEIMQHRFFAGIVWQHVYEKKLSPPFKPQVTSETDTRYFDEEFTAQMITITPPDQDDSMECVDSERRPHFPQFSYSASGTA
UniProt O75460: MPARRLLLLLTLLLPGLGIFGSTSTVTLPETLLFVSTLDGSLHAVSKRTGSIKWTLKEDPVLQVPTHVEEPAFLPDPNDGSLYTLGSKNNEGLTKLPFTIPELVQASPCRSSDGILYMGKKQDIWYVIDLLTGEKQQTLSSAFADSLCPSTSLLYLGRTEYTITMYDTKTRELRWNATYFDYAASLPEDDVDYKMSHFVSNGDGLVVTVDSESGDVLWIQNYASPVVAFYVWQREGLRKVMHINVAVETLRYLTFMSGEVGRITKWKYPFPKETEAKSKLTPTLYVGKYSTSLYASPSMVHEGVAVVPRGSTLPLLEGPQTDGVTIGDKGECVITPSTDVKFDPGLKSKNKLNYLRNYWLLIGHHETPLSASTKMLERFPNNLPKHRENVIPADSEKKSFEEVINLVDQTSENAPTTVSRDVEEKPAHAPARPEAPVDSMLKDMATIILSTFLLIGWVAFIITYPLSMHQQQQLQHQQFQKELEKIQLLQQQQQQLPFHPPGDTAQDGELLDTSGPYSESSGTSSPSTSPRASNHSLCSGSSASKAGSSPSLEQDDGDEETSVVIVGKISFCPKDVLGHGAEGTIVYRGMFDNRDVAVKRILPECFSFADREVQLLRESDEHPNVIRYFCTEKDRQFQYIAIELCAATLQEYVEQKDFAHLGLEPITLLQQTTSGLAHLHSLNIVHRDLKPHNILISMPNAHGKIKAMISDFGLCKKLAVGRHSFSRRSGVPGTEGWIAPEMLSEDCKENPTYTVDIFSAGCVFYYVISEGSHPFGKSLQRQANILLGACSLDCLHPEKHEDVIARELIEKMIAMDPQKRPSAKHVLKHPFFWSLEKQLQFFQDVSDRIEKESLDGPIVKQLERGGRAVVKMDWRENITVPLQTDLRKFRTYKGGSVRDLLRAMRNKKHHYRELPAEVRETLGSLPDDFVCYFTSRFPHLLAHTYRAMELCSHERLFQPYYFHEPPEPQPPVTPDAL

Where two headings read alike, the source gives them in different places. These are yes or no findings as the source states them, for the method shown. For some assays here: Binding seen in cells or lysates may run through a third protein. Some binding calls cover weakened binding; strength is not graded here. For some assays here: Tags and fused reporters may be left off the sequences shown.

Assay [1] has as its target T1, sMEK1 fused to the Gal4 binding domain (sMEK1-pGBT9) (human) (UniProt Q6IN85).
T1 sequence: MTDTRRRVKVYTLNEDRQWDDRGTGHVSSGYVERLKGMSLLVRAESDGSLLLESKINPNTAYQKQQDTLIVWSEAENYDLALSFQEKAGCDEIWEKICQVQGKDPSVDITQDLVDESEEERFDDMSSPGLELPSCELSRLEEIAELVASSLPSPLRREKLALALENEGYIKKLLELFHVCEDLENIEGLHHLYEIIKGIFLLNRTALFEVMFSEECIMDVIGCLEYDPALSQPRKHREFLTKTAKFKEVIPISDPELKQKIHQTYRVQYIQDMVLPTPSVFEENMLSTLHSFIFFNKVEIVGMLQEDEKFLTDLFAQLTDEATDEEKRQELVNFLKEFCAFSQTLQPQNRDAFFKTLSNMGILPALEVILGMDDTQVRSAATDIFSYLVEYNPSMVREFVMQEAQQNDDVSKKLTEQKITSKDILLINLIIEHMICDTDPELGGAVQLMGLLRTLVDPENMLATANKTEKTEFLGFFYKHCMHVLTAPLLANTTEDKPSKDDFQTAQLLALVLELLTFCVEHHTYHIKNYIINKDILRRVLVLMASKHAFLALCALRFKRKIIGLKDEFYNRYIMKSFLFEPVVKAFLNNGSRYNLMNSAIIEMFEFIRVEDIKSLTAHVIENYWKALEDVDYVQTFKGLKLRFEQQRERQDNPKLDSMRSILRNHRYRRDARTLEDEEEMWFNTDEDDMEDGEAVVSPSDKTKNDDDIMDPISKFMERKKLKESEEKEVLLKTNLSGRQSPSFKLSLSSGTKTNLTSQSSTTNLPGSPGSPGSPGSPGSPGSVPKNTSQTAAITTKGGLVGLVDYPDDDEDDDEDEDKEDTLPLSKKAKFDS
Description: two-hybrid.

In a further assay the target is Akt-pGBT9 (UniProt P31749). As to the kind of experiment: two-hybrid.
Assay [2] deals with Akt-HA (Akt-HA-pcDNA3.1) (UniProt P31749). Description: co-IP.
In assay [3] the target is IRE1 (Inositol requiring enzyme 1), IRE1-pcDNA3.1 (human) (UniProt O75460). As to the kind of experiment: co-IP.
The target of assay [4] is T2, sMEK1 (sMEK1-pcDNA3.1) (human) (UniProt Q6IN85).
T2 sequence: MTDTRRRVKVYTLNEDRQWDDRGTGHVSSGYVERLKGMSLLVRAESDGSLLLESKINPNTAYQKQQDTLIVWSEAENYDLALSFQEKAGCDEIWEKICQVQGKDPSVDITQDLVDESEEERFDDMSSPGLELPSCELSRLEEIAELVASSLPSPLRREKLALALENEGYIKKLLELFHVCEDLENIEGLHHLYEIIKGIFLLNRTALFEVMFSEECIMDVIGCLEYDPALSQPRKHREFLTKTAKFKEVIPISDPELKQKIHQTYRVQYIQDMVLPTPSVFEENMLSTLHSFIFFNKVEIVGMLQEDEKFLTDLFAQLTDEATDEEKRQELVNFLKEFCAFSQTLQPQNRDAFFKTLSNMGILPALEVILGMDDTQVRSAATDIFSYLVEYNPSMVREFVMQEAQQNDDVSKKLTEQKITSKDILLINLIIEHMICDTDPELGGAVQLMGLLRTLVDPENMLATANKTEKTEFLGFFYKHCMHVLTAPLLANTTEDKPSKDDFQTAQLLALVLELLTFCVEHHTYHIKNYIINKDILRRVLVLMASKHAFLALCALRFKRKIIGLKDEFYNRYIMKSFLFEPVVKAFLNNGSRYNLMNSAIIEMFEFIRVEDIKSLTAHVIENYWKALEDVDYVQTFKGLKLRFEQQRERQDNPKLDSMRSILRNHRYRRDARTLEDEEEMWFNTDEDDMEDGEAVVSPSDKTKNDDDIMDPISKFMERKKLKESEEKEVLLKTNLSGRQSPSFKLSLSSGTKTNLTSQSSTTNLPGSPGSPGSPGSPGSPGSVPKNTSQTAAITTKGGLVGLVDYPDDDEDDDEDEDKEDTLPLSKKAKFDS
As to the kind of experiment: co-IP.

Assay [5] deals with IRE1 (Inositol requiring enzyme 1), IRE1-pcDNA3.1 (human) (UniProt O75460). Description: co-IP. This is another data set of the same source.
The target in assay [6] is Akt-HA (Akt-HA-pcDNA3.1) (UniProt P31749). As to the kind of experiment: co-IP. This is another data set of the same source.

Take Akt-pGAD424 (from UniProt P31749 1-480): in assay [1], the binding result is “binds”.

For the molecule “IRE1 fused to the Gal4 transcription activation domain (IRE1-pGAD424) (from UniProt O75460 1-977)”, the binding entry (with Akt-pGBT9; in assay [1]) was “binds” each time.

In the case of “IRE1 (Inositol requiring enzyme 1), IRE1-pcDNA3.1 (from UniProt O75460 19-977)”, the binding result with Akt-HA (Akt-HA-pcDNA3.1) [2] is “binds”.

For the molecule “Akt-HA (Akt-HA-pcDNA3.1) (from UniProt P31749 1-480)”, the binding result in assay [3] and in assay [4] was “binds” in each case.

B1: sMEK1-GST (sMEK1-pEBG-GST) (protein, UniProt Q6IN85 1-833)
chain: MTDTRRRVKVYTLNEDRQWDDRGTGHVSSGYVERLKGMSLLVRAESDGSLLLESKINPNTAYQKQQDTLIVWSEAENYDLALSFQEKAGCDEIWEKICQVQGKDPSVDITQDLVDESEEERFDDMSSPGLELPSCELSRLEEIAELVASSLPSPLRREKLALALENEGYIKKLLELFHVCEDLENIEGLHHLYEIIKGIFLLNRTALFEVMFSEECIMDVIGCLEYDPALSQPRKHREFLTKTAKFKEVIPISDPELKQKIHQTYRVQYIQDMVLPTPSVFEENMLSTLHSFIFFNKVEIVGMLQEDEKFLTDLFAQLTDEATDEEKRQELVNFLKEFCAFSQTLQPQNRDAFFKTLSNMGILPALEVILGMDDTQVRSAATDIFSYLVEYNPSMVREFVMQEAQQNDDVSKKLTEQKITSKDILLINLIIEHMICDTDPELGGAVQLMGLLRTLVDPENMLATANKTEKTEFLGFFYKHCMHVLTAPLLANTTEDKPSKDDFQTAQLLALVLELLTFCVEHHTYHIKNYIINKDILRRVLVLMASKHAFLALCALRFKRKIIGLKDEFYNRYIMKSFLFEPVVKAFLNNGSRYNLMNSAIIEMFEFIRVEDIKSLTAHVIENYWKALEDVDYVQTFKGLKLRFEQQRERQDNPKLDSMRSILRNHRYRRDARTLEDEEEMWFNTDEDDMEDGEAVVSPSDKTKNDDDIMDPISKFMERKKLKESEEKEVLLKTNLSGRQSPSFKLSLSSGTKTNLTSQSSTTNLPGSPGSPGSPGSPGSPGSVPKNTSQTAAITTKGGLVGLVDYPDDDEDDDEDEDKEDTLPLSKKAKFDS
For B1, the binding entry in assay [5] is reported as “binds”.

B2: sMEK1 (sMEK1-pcDNA3.1) (protein, UniProt Q6IN85 1-833)
chain: MTDTRRRVKVYTLNEDRQWDDRGTGHVSSGYVERLKGMSLLVRAESDGSLLLESKINPNTAYQKQQDTLIVWSEAENYDLALSFQEKAGCDEIWEKICQVQGKDPSVDITQDLVDESEEERFDDMSSPGLELPSCELSRLEEIAELVASSLPSPLRREKLALALENEGYIKKLLELFHVCEDLENIEGLHHLYEIIKGIFLLNRTALFEVMFSEECIMDVIGCLEYDPALSQPRKHREFLTKTAKFKEVIPISDPELKQKIHQTYRVQYIQDMVLPTPSVFEENMLSTLHSFIFFNKVEIVGMLQEDEKFLTDLFAQLTDEATDEEKRQELVNFLKEFCAFSQTLQPQNRDAFFKTLSNMGILPALEVILGMDDTQVRSAATDIFSYLVEYNPSMVREFVMQEAQQNDDVSKKLTEQKITSKDILLINLIIEHMICDTDPELGGAVQLMGLLRTLVDPENMLATANKTEKTEFLGFFYKHCMHVLTAPLLANTTEDKPSKDDFQTAQLLALVLELLTFCVEHHTYHIKNYIINKDILRRVLVLMASKHAFLALCALRFKRKIIGLKDEFYNRYIMKSFLFEPVVKAFLNNGSRYNLMNSAIIEMFEFIRVEDIKSLTAHVIENYWKALEDVDYVQTFKGLKLRFEQQRERQDNPKLDSMRSILRNHRYRRDARTLEDEEEMWFNTDEDDMEDGEAVVSPSDKTKNDDDIMDPISKFMERKKLKESEEKEVLLKTNLSGRQSPSFKLSLSSGTKTNLTSQSSTTNLPGSPGSPGSPGSPGSPGSVPKNTSQTAAITTKGGLVGLVDYPDDDEDDDEDEDKEDTLPLSKKAKFDS
As to B2, the binding result in the assay with Akt-HA (Akt-HA-pcDNA3.1) [6] is on record as “binds”.
